Experimental data reported in publication PMC7819943, “Rice protein-binding microarrays: a tool to detect cis-acting elements near promoter regions in rice”.
This is one part of the list.

Target: T1, OsSMF1 (Oryza sativa, UniProt Q6ZLB0 1-436)
T1 sequence: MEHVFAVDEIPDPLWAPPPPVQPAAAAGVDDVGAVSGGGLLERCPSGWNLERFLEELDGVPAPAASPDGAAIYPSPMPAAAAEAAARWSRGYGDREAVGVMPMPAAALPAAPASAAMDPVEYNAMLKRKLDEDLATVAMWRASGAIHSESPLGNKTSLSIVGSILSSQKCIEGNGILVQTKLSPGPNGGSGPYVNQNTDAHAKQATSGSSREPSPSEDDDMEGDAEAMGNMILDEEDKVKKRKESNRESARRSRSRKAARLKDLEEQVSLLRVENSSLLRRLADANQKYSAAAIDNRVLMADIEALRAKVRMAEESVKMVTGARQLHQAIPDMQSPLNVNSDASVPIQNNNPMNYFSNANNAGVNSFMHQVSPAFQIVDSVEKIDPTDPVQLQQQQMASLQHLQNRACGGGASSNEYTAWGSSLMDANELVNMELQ
Assay: protein-binding microarray (RPBM); PBS, 2% BSA, 51.3 ng/ul salmon testes DNA, 50 uM zinc acetate, 200 nM TF, 25 C, 1 h; high values mean tight binding
Settings: protein: recombinant; tags: N-terminal polyhistidine and DsRed monomer fusion (pET32a); chain copies: 2; label: CyDye5-dUTP incorporated in the synthesized complementary strand; 3' TTTTT single-stranded linker to array surface; dsDNA, one strand shown
Method in brief: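 The binding signal is fluorescence intensity per feature, in arbitrary units, read on an Axon 4000B scanner. Polyhistidine- and DsRed-tagged transcription factors (N-terminal fusions) from E. coli BL21-CodonPlus were purified on Ni–NTA and applied at 200 nM for 1 h at 25 °C to a double-stranded, BSA-blocked custom Agilent array in buffer with 50 µM zinc acetate.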

| Sequence | binding signal |
| --- | --- |
| GAGCAAGATTATGTGTTAATAAATCTTTGTGCAAGCATTCCGGAGTCACCTAGTGCAG | 3900 fluorescence intensity (a.u.) |
| TGTAATTATTATTTATTTTATTGTGATTTAATTTATCATCCGGAGTCACCTAGTGCAG | 3260 fluorescence intensity (a.u.) |
| CCCTTGCATCCACGCCGTCGCCGTCCCCACGTCGCCCACGCGGAGTCACCTAGTGCAG | 3430 fluorescence intensity (a.u.) |
| CGCCTTTCCGCCCTGGCTGCCGCTAGTGTTGTCACCGGAGCGGAGTCACCTAGTGCAG | 4190 fluorescence intensity (a.u.) |
| GCCCGAGAGCGAACGGCCGTCTGCCACGTCATTTTCGCCGCGGAGTCACCTAGTGCAG | 27300 fluorescence intensity (a.u.) |
| AGGGTTGGGGCAGTTGATGTCGATGATCAGTGTGATTCAGCGGAGTCACCTAGTGCAG | 4340 fluorescence intensity (a.u.) |
| CGTAGTGTAATTACATTGTAACTACAATGTAACTTATATGCGGAGTCACCTAGTGCAG | 3160 fluorescence intensity (a.u.) |
| ATTATTAATTCAAAACATAGTACACATGTACACGTAGACACGGAGTCACCTAGTGCAG | 7330 fluorescence intensity (a.u.) |
| CCTGCCATCATATTTCATGCCTTGCTACGTTTGCTTGATGCGGAGTCACCTAGTGCAG | 3980 fluorescence intensity (a.u.) |
| AAGCCCAATTGTTGGATGGCCCATCCAATTCAGTGCAGTCCGGAGTCACCTAGTGCAG | 7120 fluorescence intensity (a.u.) |
| CAGGTGTGTCCATTGAATTGAATTGAATTGAAACTATTGACGGAGTCACCTAGTGCAG | 60900 fluorescence intensity (a.u.) |
| ATATGTTTTGTTCGGTACTATTTTGCTATAACGTGTGACGCGGAGTCACCTAGTGCAG | 3970 fluorescence intensity (a.u.) |
| CAATATGACATTGTATATGTGAATTGAGTGTAACTTGGTTCGGAGTCACCTAGTGCAG | 3290 fluorescence intensity (a.u.) |
| AGACAAATAATTCCCTTTGCCATGCCTGTCAGTTAGGGAACGGAGTCACCTAGTGCAG | 3500 fluorescence intensity (a.u.) |
| CCGTCGCCGCCAAGCATCGAGCCGCCGGCCACAGCAGCCGCGGAGTCACCTAGTGCAG | 42100 fluorescence intensity (a.u.) |
| TGCTCGACGCGCTCGACATGTCGGCGCCCAAGGACAGCCCCGGAGTCACCTAGTGCAG | 11500 fluorescence intensity (a.u.) |
| TTCCCCTTCCGCGACTGCGAGCTTCTCCGCCGCCGCCGCCCGGAGTCACCTAGTGCAG | 3160 fluorescence intensity (a.u.) |
| TGGGCGAGGAAGATATGAGTGTGAAAGGATGGAGGGCCCACGGAGTCACCTAGTGCAG | 32900 fluorescence intensity (a.u.) |
| AGAAACCATTCCTGGCCACCAACCTCTCTATCCGCCAAAACGGAGTCACCTAGTGCAG | 3240 fluorescence intensity (a.u.) |
| CTGGATCCGCCTCTACGTACCCGTCATCGGCTCGCATCGCCGGAGTCACCTAGTGCAG | 6740 fluorescence intensity (a.u.) |
| AGGAGGCCACGTAGGACGCATGACGTGGTTCGCGGCCAACCGGAGTCACCTAGTGCAG | 15100 fluorescence intensity (a.u.) |

| Sequence | binding signal |
| --- | --- |
| CGTGGTTGATCCGTTGATGTTACGTATGTTGTGCACCGATCGGAGTCACCTAGTGCAG | 3600 fluorescence intensity (a.u.) |
| TCCTTCTCCACTTGGACGCACAAACCGCACACCTCGTGCCCGGAGTCACCTAGTGCAG | 8370 fluorescence intensity (a.u.) |
| GCAGAGAGAGGGGAGGAGGGTGGGTGGCGGCGGCGGCTAGCGGAGTCACCTAGTGCAG | 6300 fluorescence intensity (a.u.) |
| GCCCAAAGGTAAAATTTTCATTTTACCAACCGAGATAAAACGGAGTCACCTAGTGCAG | 4970 fluorescence intensity (a.u.) |
| GGGCATGAGACACAACTAGATCGTCAGATCAATACACACCCGGAGTCACCTAGTGCAG | 3470 fluorescence intensity (a.u.) |
| TAGTGTACGAGACCGACCTTACGTGTTGATTATGCTAAGCCGGAGTCACCTAGTGCAG | 5150 fluorescence intensity (a.u.) |
| GTCTCCTCCATCACGCCGATCATGTCCTGCATCATCAACACGGAGTCACCTAGTGCAG | 6240 fluorescence intensity (a.u.) |
| CAGGTACTTAACTTTAGTCCCTGTCTTTAGACACTAATTTCGGAGTCACCTAGTGCAG | 5100 fluorescence intensity (a.u.) |
| CTCCTCTCCTCTCTTCTCCACATCCACAAGAAATTTCGTACGGAGTCACCTAGTGCAG | 3630 fluorescence intensity (a.u.) |
| CATTTTCCGCGATCCGTTGGAACCGACTTCTCATCAAATGCGGAGTCACCTAGTGCAG | 8310 fluorescence intensity (a.u.) |
| GCAGAATCTTTGTATAATATATGGACGTGTTGCAGCTTTTCGGAGTCACCTAGTGCAG | 3300 fluorescence intensity (a.u.) |
| TATCTGCATTGCATTACACATTTTGCTGTTTCTGTTAATGCGGAGTCACCTAGTGCAG | 5870 fluorescence intensity (a.u.) |
| GCTCCACATATACCGGAGACACGACACCTCCAGCGTTTGCCGGAGTCACCTAGTGCAG | 3440 fluorescence intensity (a.u.) |
| TGTTCCTTATAAGTGAGATCCACTGTTATGTATTTAAGCGCGGAGTCACCTAGTGCAG | 31400 fluorescence intensity (a.u.) |
| AACCATCTTAGAGGATAATATGGATGGTATGACAAAGTTTCGGAGTCACCTAGTGCAG | 3430 fluorescence intensity (a.u.) |
| ATATGCTCATCCCAAATTGGGCTTAAAATCTACAGTCACCCGGAGTCACCTAGTGCAG | 3260 fluorescence intensity (a.u.) |
| GGGGAGGAGGAAGGCGTGGCGGTGGAGAACGAGATGAGCCCGGAGTCACCTAGTGCAG | 3810 fluorescence intensity (a.u.) |
| GTCAACTTGCAAGTCCTTAATCTCCAAGATTGATCCGCATCGGAGTCACCTAGTGCAG | 10900 fluorescence intensity (a.u.) |
| CAACTTCATCAGCAGAAATTGACATGGTGTGATATTTGTGCGGAGTCACCTAGTGCAG | 3330 fluorescence intensity (a.u.) |
| CGTATTCATGATGCGTCGTGATTCACGCACATACATTTGACGGAGTCACCTAGTGCAG | 4250 fluorescence intensity (a.u.) |
| GGTGCTGTCATCGAGAGTGAAGCACACGTCAGTATCCCTGCGGAGTCACCTAGTGCAG | 16700 fluorescence intensity (a.u.) |

Two records picked at random from those above, as already listed:

| Sequence | binding signal |
| --- | --- |
| TAGTGTACGAGACCGACCTTACGTGTTGATTATGCTAAGCCGGAGTCACCTAGTGCAG | 5150 fluorescence intensity (a.u.) |
| GGTGCTGTCATCGAGAGTGAAGCACACGTCAGTATCCCTGCGGAGTCACCTAGTGCAG | 16700 fluorescence intensity (a.u.) |
